Results are given in words; binding and its absence hold for the method and conditions named. In cells and extracts the contact can be indirect. Here binding means that the protein was enriched with, or labelled near, the bait; the list need not be complete.
Key:
[1] = target: McaA-GFP (Magnetospirillum magneticum AMB-1); test: affinity purification with mass spectrometry; GFP-Trap agarose beads on lysates of AMB-1 expressing McaA-GFP or McaB-GFP from replicative plasmids (20 L pooled culture); elution with 200 mM glycine pH 2.5; GFP alone as control
[2] = target: McaB-GFP (Magnetospirillum magneticum AMB-1); test: as above

B1: MamA (protein, UniProt Q2W8Q0 1-217)
chain: MSSKPSDILDEVTLYAHYGLSVAKKLGMNMVDAFRAAFSVNDDIRQVYYRDKGISHAKAGRYSQAVMLLEQVYDADAFDVDVALHLGIAYVKTGAVDRGTELLERSLADAPDNVKVATVLGLTYVQVQKYDLAVPLLIKVAEANPINFNVRFRLGVALDNLGRFDEAIDSFKIALGLRPNEGKVHRAIAFSYEQMGRHEEALPHFKKANELDEGASV
binding [1]: binds
binding [2]: binds

B2: MamJ (protein, UniProt Q2W8Q7 1-506)
chain: MANNRRDRDKGDGSQGEGLSAGGGMPSEPEIVSVTVHPTPTLAVSLKPAQQGDIWASLLESSPWSANHGGRIEPVQPSPAPTRPTESPSVGDLVSRWSQPIWRTPSRVEEVETPESNFVIELEASQPITSDITVSVSDLVIEVQPIQTTEAEPEPELPVAEPEPGVVPVDVVAEAEPEPELPVAEPEPGVVPVDVVAEAEPEPELPVAEPEPEVVPVDVVAEAEPEPELPVAEPEPEVVPVDVVAEAEPEPELPVAEPEPEVVPVDVVAEAEPEPELPVAAPEPEVLPVEVVAEAEPEPELPVAAPEPEVLPVEVVAEAEPEPELPVAAPEPEVVPVDVVAEAEPEPELPVAEPELVHEAAVSEPVAESIEDAVAVPAPATNFGLAELMQAAAAMAPVLASPPSVAPAAKPVREPAKKRKAPPVRKKVATVQDVPVEDLLGGIFGIAGSAVRSVLSLGAGVVGGVVKGGRVIGDNVVAGARRLTGSAEGSCGTCSTSQCDTVGKKK
binding [2]: binds

B3: Mms6 (protein, UniProt Q2W8R5 1-133)
chain: MGEMEREGAAAKAGAAKTGAAKTGTVAKTGIAAKTGVATAVAAPAAPANVAAAQGAGTKVALGAGKAAAGAKVVGGTIWTGKGLGLGLGLGLGAWGPIILGVVGAGAVYAYMKSRDIESAQSDEEVELRDALA
binding [2]: binds

B4: MamK (protein, UniProt Q2W8Q6 1-347)
chain: MSEGEGQAKNRLFLGIDLGTSHTAVMSSRGKKFLLKSVVGYPKDVIGLKLLGRPYVVGDEAFEMRSYLDIRYPLQDGVLSEISDRDIEVARHLLTHVVKSAEPGPNDEICAVIGVPARASAANKALLLKMAQEVVHTALVVSEPFMVGYGLDKLINTIIVDIGAGTTDICALKGTVPGPEDQVTLTKAGNYVDERLQNAILERHPELQMNVNVACAVKEQFSFVGTPTEVASFEFRAAGKPVRADVTEPVKIACEALMPDIIESIETLLRSFQPEYQATVLQNIVFAGGGSRIRGLAAYVKEKLRPFGDANVTCVKDPTFDGCRGALRLAEELPPQYWRQLGDVSGS
binding [1]: binds
